This is one part of the list. Single values are uncertain, as repeats are few or missing.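 Imaging used 1,536-well plates; nuclei positive for cleaved PARP by antibody were divided by total DNA-stained nuclei to yield the apoptosis fraction. Doses for screening kept most cells viable, and cell lines differ markedly in resting and induced cleaved-PARP levels.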
What follows are molecules tested on COLO829 (assay: cleaved PARP positive nuclei fraction relative to DMSO control; melanoma cells; higher = more apoptosis). Conditions: library dose: low library concentration; 72 h.

| Compound | cleaved PARP positive nuclei fraction [%] |
| --- | --- |
| CC[C@]1(O)C[C@H]2CN(CCc3c([nH]c4ccccc34)[C@@](C(=O)OC)(c3cc4c(cc3OC)N(C=O)[C@H]3[C@@](O)(C(=O)OC)[C@H](OC(C)=O)[C@]5(CC)C=CCN6CC[C@]43[C@@H]65)C2)C1 [vincristine] + C=C(c1ccc(C(=O)O)cc1)c1cc2c(cc1C)C(C)(C)CCC2(C)C [Bexarotene] (first compound 0.0001 µM, partner dose 2 µM) | 94.6 |
| O=C(/C=C/c1cccnc1)NCCCCC1CCN(C(=O)c2ccccc2)CC1 + C#Cc1cccc(Nc2ncnc3cc(OCCOC)c(OCCOC)cc23)c1 [erlotinib] (first compound 0.01 µM, partner dose 0.8 µM) | 114 |
| Cc1cn(-c2cc(NC(=O)c3ccc(C)c(Nc4nccc(-c5cccnc5)n4)c3)cc(C(F)(F)F)c2)cn1 [nilotinib] + CO[C@H]1C[C@@H]2CC[C@@H](C)[C@@](O)(O2)C(=O)C(=O)N2CCCC[C@H]2C(=O)O[C@H]([C@H](C)C[C@@H]2CC[C@@H](OCCO)[C@H](OC)C2)CC(=O)[C@H](C)/C=C(\C)[C@@H](O)[C@@H](OC)C(=O)[C@H](C)C[C@H](C)/C=C/C=C/C=C/1C [everolimus] (first compound 0.2 µM, partner dose 0.02 µM) | 73.3 |
| O=C(Nc1cc(C(F)(F)F)cc(C(F)(F)F)c1)c1cc(Cl)ccc1O + Cn1c(Nc2ccc(C(F)(F)F)cc2)nc2cc(Oc3ccnc(-c4ncc(C(F)(F)F)[nH]4)c3)ccc21 [CHIR265] (first compound 0.016 µM, partner dose 0.08 µM) | 53 |
| O=c1[nH]nc(Sc2ncc([N+](=O)[O-])s2)n1-c1ccc2c(c1)OCCO2 + OCc1c[nH]c2ccccc12 [Indole-3-carbinol] (first compound 0.2 µM, partner dose 0.8 µM) | 123 |
| O=C(/C=C/c1cccnc1)NCCCCC1CCN(C(=O)c2ccccc2)CC1 + CO[C@H]1C[C@@H]2CC[C@@H](C)[C@@](O)(O2)C(=O)C(=O)N2CCCC[C@H]2C(=O)O[C@H]([C@H](C)C[C@@H]2CC[C@@H](OCCO)[C@H](OC)C2)CC(=O)[C@H](C)/C=C(\C)[C@@H](O)[C@@H](OC)C(=O)[C@H](C)C[C@H](C)/C=C/C=C/C=C/1C [everolimus] (first compound 0.01 µM, partner dose 0.02 µM) | 166 |
| O=c1[nH]nc(Sc2ncc([N+](=O)[O-])s2)n1-c1ccc2c(c1)OCCO2 + CS(=O)(=O)CCNCc1ccc(-c2ccc3ncnc(Nc4ccc(OCc5cccc(F)c5)c(Cl)c4)c3c2)o1 [lapatinib] (first compound 0.2 µM, partner dose 0.8 µM) | 111 |
| COc1cc([C@@H]2c3cc4c(cc3[C@@H](O[C@@H]3O[C@@H]5CO[C@@H](C)O[C@H]5[C@H](O)[C@H]3O)[C@H]3COC(=O)[C@H]23)OCO4)cc(OC)c1O [etoposide] + CO[C@H]1C[C@@H]2CC[C@@H](C)[C@@](O)(O2)C(=O)C(=O)N2CCCC[C@H]2C(=O)O[C@H]([C@H](C)C[C@@H]2CC[C@@H](OCCO)[C@H](OC)C2)CC(=O)[C@H](C)/C=C(\C)[C@@H](O)[C@@H](OC)C(=O)[C@H](C)C[C@H](C)/C=C/C=C/C=C/1C [everolimus] (first compound 0.02 µM, partner dose 0.02 µM) | 163 |
| Cc1cn(-c2cc(NC(=O)c3ccc(C)c(Nc4nccc(-c5cccnc5)n4)c3)cc(C(F)(F)F)c2)cn1 [nilotinib] + Nc1cccc2c1CN(C1CCC(=O)NC1=O)C2=O [lenalidomide] (first compound 0.2 µM, partner dose 1 µM) | 118 |
| Cc1ccc(Nc2nccc(N(C)c3ccc4c(C)n(C)nc4c3)n2)cc1S(N)(=O)=O [Pazopanib] + CNC(=O)c1cc(Oc2ccc(NC(=O)Nc3ccc(Cl)c(C(F)(F)F)c3)cc2)ccn1 [sorafenib] (first compound 0.4 µM, partner dose 0.4 µM) | 76.7 |
| O=c1[nH]nc(Sc2ncc([N+](=O)[O-])s2)n1-c1ccc2c(c1)OCCO2 + CS(=O)(=O)c1ccc(C(=O)Nc2ccc(Cl)c(-c3ccccn3)c2)c(Cl)c1 [vismodegib] (first compound 0.2 µM, partner dose 1 µM) | 116 |

Copied from the entries so far (two entries):

| Compound | cleaved PARP positive nuclei fraction [%] |
| --- | --- |
| CC[C@]1(O)C[C@H]2CN(CCc3c([nH]c4ccccc34)[C@@](C(=O)OC)(c3cc4c(cc3OC)N(C=O)[C@H]3[C@@](O)(C(=O)OC)[C@H](OC(C)=O)[C@]5(CC)C=CCN6CC[C@]43[C@@H]65)C2)C1 [vincristine] + C=C(c1ccc(C(=O)O)cc1)c1cc2c(cc1C)C(C)(C)CCC2(C)C [Bexarotene] (first compound 0.0001 µM, partner dose 2 µM) | 94.6 |
| O=C(/C=C/c1cccnc1)NCCCCC1CCN(C(=O)c2ccccc2)CC1 + C#Cc1cccc(Nc2ncnc3cc(OCCOC)c(OCCOC)cc23)c1 [erlotinib] (first compound 0.01 µM, partner dose 0.8 µM) | 114 |

The molecules below were run on G361 in the same assay as above. Conditions: library dose: low library concentration; 72 h.

| Compound | cleaved PARP positive nuclei fraction [%] |
| --- | --- |
| Cc1cn(-c2cc(NC(=O)c3ccc(C)c(Nc4nccc(-c5cccnc5)n4)c3)cc(C(F)(F)F)c2)cn1 [nilotinib] + CNC(=O)c1cc(Oc2ccc(NC(=O)Nc3ccc(Cl)c(C(F)(F)F)c3)cc2)ccn1 [sorafenib] (first compound 0.2 µM, partner dose 0.4 µM) | 98.4 |
| O=c1[nH]nc(Sc2ncc([N+](=O)[O-])s2)n1-c1ccc2c(c1)OCCO2 + Nc1nc(F)nc2c1ncn2[C@@H]1O[C@H](CO)[C@@H](O)[C@@H]1O [fludarabine] (first compound 0.2 µM, partner dose 0.2 µM) | 121 |
| Cc1cn(-c2cc(NC(=O)c3ccc(C)c(Nc4nccc(-c5cccnc5)n4)c3)cc(C(F)(F)F)c2)cn1 [nilotinib] + CCCS(=O)(=O)Nc1ccc(F)c(C(=O)c2c[nH]c3ncc(Cl)cc23)c1F [PLX4720] (first compound 0.2 µM, partner dose 0.08 µM) | 181 |
| O=C(Nc1cc(C(F)(F)F)cc(C(F)(F)F)c1)c1cc(Cl)ccc1O + CC(=O)O[C@@]12CO[C@@H]1C[C@H](O)[C@@]1(C)C(=O)[C@H](O)C3=C(C)[C@@H](OC(=O)[C@H](O)[C@@H](NC(=O)OC(C)(C)C)c4ccccc4)C[C@@](O)([C@@H](OC(=O)c4ccccc4)[C@H]21)C3(C)C [Docetaxel] (first compound 0.016 µM, partner dose 0.0001 µM) | 955 |
| O=C(/C=C/c1cccnc1)NCCCCC1CCN(C(=O)c2ccccc2)CC1 + Nc1nc(F)nc2c1ncn2[C@@H]1O[C@H](CO)[C@@H](O)[C@@H]1O [fludarabine] (first compound 0.01 µM, partner dose 0.2 µM) | 1320 |
| N#CC[C@H](C1CCCC1)n1cc(-c2ncnc3[nH]ccc23)cn1 [ruxolitinib] + NC1(c2ccc(-c3nc4ccn5c(=O)[nH]nc5c4cc3-c3ccccc3)cc2)CCC1 [MK2206] (first compound 1 µM, partner dose 0.4 µM) | 178 |
| CCCCCCCCCCCCCCCCCCOP(=O)([O-])OC1CC[N+](C)(C)CC1 [Perifosine] + Cn1c(=O)n(-c2ccc(C(C)(C)C#N)cc2)c2c3cc(-c4cnc5ccccc5c4)ccc3ncc21 [NVP-BEZ235] (first compound 0.4 µM, partner dose 0.004 µM) | 164 |
| CC[C@]1(O)C[C@H]2CN(CCc3c([nH]c4ccccc34)[C@@](C(=O)OC)(c3cc4c(cc3OC)N(C=O)[C@H]3[C@@](O)(C(=O)OC)[C@H](OC(C)=O)[C@]5(CC)C=CCN6CC[C@]43[C@@H]65)C2)C1 [vincristine] + CC(=O)O[C@@]12CO[C@@H]1C[C@H](O)[C@@]1(C)C(=O)[C@H](O)C3=C(C)[C@@H](OC(=O)[C@H](O)[C@@H](NC(=O)OC(C)(C)C)c4ccccc4)C[C@@](O)([C@@H](OC(=O)c4ccccc4)[C@H]21)C3(C)C [Docetaxel] (first compound 0.0001 µM, partner dose 0.0001 µM) | 1110 |
| CCCCCCCCCCCCCCCCCCOP(=O)([O-])OC1CC[N+](C)(C)CC1 [Perifosine] + CO[C@H]1C[C@@H]2CC[C@@H](C)[C@@](O)(O2)C(=O)C(=O)N2CCCC[C@H]2C(=O)O[C@H]([C@H](C)C[C@@H]2CC[C@@H](OCCO)[C@H](OC)C2)CC(=O)[C@H](C)/C=C(\C)[C@@H](O)[C@@H](OC)C(=O)[C@H](C)C[C@H](C)/C=C/C=C/C=C/1C [everolimus] (first compound 0.4 µM, partner dose 0.02 µM) | 52.7 |
| Cc1ccc(Nc2nccc(N(C)c3ccc4c(C)n(C)nc4c3)n2)cc1S(N)(=O)=O [Pazopanib] + CS(=O)(=O)CCNCc1ccc(-c2ccc3ncnc(Nc4ccc(OCc5cccc(F)c5)c(Cl)c4)c3c2)o1 [lapatinib] (first compound 0.4 µM, partner dose 0.8 µM) | 137 |
| N#CC[C@H](C1CCCC1)n1cc(-c2ncnc3[nH]ccc23)cn1 [ruxolitinib] + C[C@]1(c2nc3c(C(N)=O)cccc3[nH]2)CCCN1 [Veliparib] (first compound 1 µM, partner dose 1.4 µM) | 61.8 |
| CC[C@]1(O)C[C@H]2CN(CCc3c([nH]c4ccccc34)[C@@](C(=O)OC)(c3cc4c(cc3OC)N(C=O)[C@H]3[C@@](O)(C(=O)OC)[C@H](OC(C)=O)[C@]5(CC)C=CCN6CC[C@]43[C@@H]65)C2)C1 [vincristine] + Cn1cnc2c(F)c(Nc3ccc(Br)cc3Cl)c(C(=O)NOCCO)cc21 [selumetinib] (first compound 0.0001 µM, partner dose 0.015 µM) | 70.4 |
| CC[C@]1(O)C[C@H]2CN(CCc3c([nH]c4ccccc34)[C@@](C(=O)OC)(c3cc4c(cc3OC)N(C=O)[C@H]3[C@@](O)(C(=O)OC)[C@H](OC(C)=O)[C@]5(CC)C=CCN6CC[C@]43[C@@H]65)C2)C1 [vincristine] + Nc1cccc2c1CN(C1CCC(=O)NC1=O)C2=O [lenalidomide] (first compound 0.0001 µM, partner dose 1 µM) | 93.1 |
